# Measured values taken from paper PMC2734247, “The Chlamydia Type III Secretion System C-ring Engages a Chaperone-Effector Protein Complex” (PLoS Pathogens, 2009).
# No constants are given. Whether binding was seen depends on the method and setting. Binding calls can cover weak binding; strength is not graded here.
# T1: Ct584 (C. trachomatis) (UniProt O84588)
# T1 sequence: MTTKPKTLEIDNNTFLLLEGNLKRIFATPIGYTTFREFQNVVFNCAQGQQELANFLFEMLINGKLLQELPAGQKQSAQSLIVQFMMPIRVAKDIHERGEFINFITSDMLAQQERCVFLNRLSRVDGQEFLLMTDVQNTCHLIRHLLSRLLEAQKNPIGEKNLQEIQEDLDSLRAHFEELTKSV
# T2: Ct663 (C. trachomatis) (UniProt O84670)
# T2 sequence: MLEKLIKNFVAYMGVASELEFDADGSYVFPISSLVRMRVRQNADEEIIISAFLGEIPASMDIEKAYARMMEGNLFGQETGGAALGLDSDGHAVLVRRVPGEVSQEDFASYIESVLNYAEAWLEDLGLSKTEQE
# Experiments:
# Experiment in all cases: two-hybrid; Matchmaker system; array of yeast with C. trachomatis ORFs in pGAD424 (Gal4AD) mated against yeast with ORFs in pGBT9 (Gal4DBD); growth of diploids on SC media lacking histidine or adenine over 4 days
# [1] = biological target: T1, Ct584 (C. trachomatis)
# [2] = biological target: T2, Ct663 (C. trachomatis)
# [3] = biological target: CdsQ (C. trachomatis)
molecule,measurement,setting,value
CdsF (C. trachomatis),binding,[1],binds
Scc1 (C. trachomatis),binding,[2],binds
"Ct677 (protein, UniProt O84684 1-179) MTLASAEKEMVGVLTFFQKETRGFRTGKAHPALVETVTVEVYGTTMRLSDIASISVSDMRQLLLSPYDAGTVSAISKGILAANLNLQPIVEGATVRINVPEPTEEYRREVIKQLKRKSEEAKVAIRNIRRTFNDRLKKDDNLTEDAVKSLEKKIQELTDKFCKQIEELAKQKEAELATV",binding,[3],binds
